{
  "source": "paper PMC9848300",
  "about": "“Discovery of novel enasidenib analogues targeting inhibition of mutant isocitrate dehydrogenase 2 as antileukaemic agents” (Journal of Enzyme Inhibition and Medicinal Chemistry, 2023)",
  "assay": "in vitro",
  "conditions": "human",
  "data": [
    {"smiles": "CN[C@@H]1C[C@H]2O[C@@](C)([C@@H]1OC)n1c3ccccc3c3c4c(c5c6ccccc6n2c5c31)C(=O)NC4", "note": "[Staurosporine, reference compound]", "values": [
      {"measurement": "IC50", "value": "35.3 ± 1.93", "unit": "µM"}
    ]}
  ]
}
